The text below walks through data of article PMC11197270.

Amino acid sequences for entries named in this document (tags omitted).
UniProt P62258: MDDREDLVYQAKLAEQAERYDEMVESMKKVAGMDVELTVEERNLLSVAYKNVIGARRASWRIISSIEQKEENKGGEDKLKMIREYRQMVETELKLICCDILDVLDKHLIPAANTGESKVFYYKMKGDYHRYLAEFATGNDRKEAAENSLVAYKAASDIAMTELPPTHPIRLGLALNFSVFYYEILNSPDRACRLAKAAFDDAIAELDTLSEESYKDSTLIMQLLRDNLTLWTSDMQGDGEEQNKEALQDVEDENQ

These are yes or no findings as the source states them, for the method shown. In cells and extracts the contact can be indirect. Some results given as binding are weak or reduced against the parent protein; the word gives no strength.

In the experiment the target is T1, RUFY3 protein (human (all cell lines of the paper are human; the line of the co-IP is not stated)) (UniProt Q7L099).
T1 sequence: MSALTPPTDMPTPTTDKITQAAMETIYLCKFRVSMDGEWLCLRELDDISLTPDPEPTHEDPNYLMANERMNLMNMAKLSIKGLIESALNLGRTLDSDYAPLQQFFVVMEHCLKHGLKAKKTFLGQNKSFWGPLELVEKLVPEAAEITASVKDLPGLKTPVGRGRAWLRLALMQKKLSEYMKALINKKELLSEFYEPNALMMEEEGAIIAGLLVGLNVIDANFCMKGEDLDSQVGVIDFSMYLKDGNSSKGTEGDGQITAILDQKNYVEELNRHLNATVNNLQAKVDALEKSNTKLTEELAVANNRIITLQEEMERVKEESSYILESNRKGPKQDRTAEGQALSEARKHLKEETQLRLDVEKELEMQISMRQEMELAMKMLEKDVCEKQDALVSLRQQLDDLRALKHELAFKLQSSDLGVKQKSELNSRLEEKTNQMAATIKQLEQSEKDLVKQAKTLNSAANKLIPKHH
The experiment is described as follows: co-IP; Co-IP kit (BersinBio Bes3011); antibody (5 ug) mixed with cell lysates, 4 °C overnight, then protein A/G magnetic beads 3 h at room temperature; eluate analysed by Western blot; cell line not stated.

Regarding “YWHAE protein (from UniProt P62258 1-255)”, the binding result is listed as “binds”.
